Numbering of substitutions follows the chain as printed.

The record followed here is patent US20090305962A1 (Amgen, published 2009).

T1: human IL-6 (human, UniProt P05231 30-212)
T1 construct: the protein used was bought recombinant human IL-6 (R&D Systems), in part biotinylated; also called rhIL-6; hIL-6
T1 sequence: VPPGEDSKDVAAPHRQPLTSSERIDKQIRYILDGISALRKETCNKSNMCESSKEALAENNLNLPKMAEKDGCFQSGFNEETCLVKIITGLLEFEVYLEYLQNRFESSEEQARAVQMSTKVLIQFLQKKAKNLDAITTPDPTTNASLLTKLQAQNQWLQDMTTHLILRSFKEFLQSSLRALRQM

B1: SEQ ID NO 771 (designed binder)
chain: CLPSQFQCGSGYCISQRWVCDGENDCEDSSDEANCAGSVPTCGGSEFTCGNGRCLPQHWFCDGENDCLDDSDEAGCPAPT
B2: SEQ ID NO 756 (designed binder)
chain: CPLDQFTCGNGSCLPANLLCDGVNDCEDNSDEAGCPTRTCLPDQFQCGSGYCLPQRWVCDGVDDCEDSSDEKGCTPHM
B3: SEQ ID NO 755 (designed binder)
chain: CRASEFRCRSYERCISPRWVCDGVNDCGDNSDETGCPPRTCLPDQFQCGSGYCLPQRWVCDGVDDCEDSSDEKGCTPHT
B4: SEQ ID NO 698 (designed binder)
chain: CVPSQFQCGSGYCISQRWVCDGENDCEDGSDEANCAGSVPTCPSDEFRCRNGRCIPRAWRCDGVNDCADNSDEEDCTEHT
B5: SEQ ID NO 692 (designed binder)
chain: CQSDEFTCRDSNKCVSRDWLCDGEDDCPDGSDETSCAGSERTCPSSQFQCSSGWCIPEDWRCDGVPDCGDGSDEASCPPHT
B6: SEQ ID NO 786 (designed binder)
chain: CLPNQFTCDSGNCVPQALGCDGDNDCEDNSDESPALCAAPAHTCQANEFTCSSGNCLSPALLCDGVDDCGDNSDETYCAGPAPTCLPSQFRCGSGCCFSQRWVCDGKNDCEDSSDEANCAGSLPT
B7: SEQ ID NO 666 (designed binder)
chain: CAPNQFQCGSGYCVPAAWVCDGENDCEDNSDESLAHCQAHTCVSSEFRCSSGQCIPPPWRCDGVDDCADNSDEAGCTPPT
B8: SEQ ID NO 783 (designed binder)
chain: CLPDQFPCENGKCLPVNLVCDGDDDCPDGSDESEVCAGAVRTCLPDQFRCGNGQCIPLDWVCDGVNDCADNSDETGCPTRTCLPSQFQCGSGWCISQRWVCDGENDCEDSSDEANCAGSVPT
B9: SEQ ID NO 649 (designed binder)
chain: CLPSQFQCRNGRCIPLPWLCDGDNDCEDDSDETNCTPRTCLPSQFQCGSGYCISQRWVCDGENDCEDSSDEANCAGSVPT
B10: SEQ ID NO 659 (designed binder)
chain: B9 chain with L41V
B11: SEQ ID NO 775 (designed binder)
chain: CQPFDEFECRNGSCIPLPWRCDGVNDCLDDSDEEDCTGSAPTCAPSQFQCGSGYCIPQRWVCDGVDDCEDSSDEKGCTPHT
B12: SEQ ID NO 654 (designed binder)
chain: CLPSQFQCRNGRCIPLPWLCDGDNDCEDDSDETNCTPRTCLPDQFQCGSGYCLPQAWVCDGENDCEDGSDETNCPART
B13: SEQ ID NO 634 (designed binder)
chain: CPSSQFQCGSGYCISPAWVCDGVNDCEDGSDEKSCAPHTCLPDQFQCGSGYCLPQAWVCDGENDCEDGSDETNCPART
B14: SEQ ID NO 662 (designed binder)
chain: CVPSQFQCGSGYCISQRWVCDGENDCEDSSDEANCAGSVPTCLSSEFTCGNGNCIPRPWVCDGDNDCVDDSDEKGCPEPT
B15: SEQ ID NO 678 (designed binder)
chain: CLPSQFQCGSGYCISQRWVCDGENDCEDSSDEANCAGSVPTCRSSQFQCGNGRCISVHWVCDGDDDCEDSSDESSAHCKPRT
B16: SEQ ID NO 676 (designed binder)
chain: CRSNQFQCGSGYCIPVKWLCDGENDCEDGSDESLAHCQAHTCVASQFRCDNGRCLSEPLGCDGVNDCPDNSDEEDCTTAEHT
B17: SEQ ID NO 657 (designed binder)
chain: CAPNQFQCGSGYCVPAAWVCDGENDCEDNSDESSALCQERTCLSSQFQCDNGNCVPQQWVCDGDNDCLDDSDETSCSAPASEPPGSL
B18: SEQ ID NO 684 (designed binder)
chain: CLPSQFQCGSGYCISQRWVCDGENDCEDSSDEANCAGSVPTCRPSEYPCGNGRCVPQPLRCDGVNDCEDSSDEANCTPHT
B19: SEQ ID NO 788 (designed binder)
chain: CGASQFQCGSGYCISQRWVCDGENDCEDSSDEANCAGSVPTCLPSEFQCRDSKICLSADWLCDGVNDCADNSDEEGCPPPTCLPDQFQCGSGYCLPQAWVCDGENDCEDGSDETNCPART
B20: SEQ ID NO 706 (designed binder)
chain: CQSGQFPCGNGNCIPRPLRCDGVDDCPDGSDEPPECPQPTCLPSQFQCGSGYCISRRWVCDGENDCEDSSDEKGCTPHT
B21: SEQ ID NO 637 (designed binder)
chain: CLPSQFQCGSGYCISQRWVCDGENDCEDSSDEANCAGSVPTCRPGQFQCGSGYCIPRPWRCDGDNDCEDDSDEKGCARSEPT
B22: SEQ ID NO 736 (designed binder)
chain: CAPSQFPCSSNDICVPRRWRCDGVDDCGDSSDEASCGTSVRTCLPSQFQCGSGYCISQRWVCDGENDCEDSSDEANCAGSVPT
B23: SEQ ID NO 652 (designed binder)
chain: CPPDQFQCGSGYCLPQAWVCDGENDCEDGSDETNCPARTCLSSEFTCGNGNCIPRPWVCDGDNDCVDDSDEKGCPEPT
B24: SEQ ID NO 795 (designed binder)
chain: CPSSQFRCSSGRCVPADWLCDGVNDCADNSDETGCPTRTCLPSQFQCGSGYCISQRWVCDGENDCEDSSDEANCAGSVPTCPSDEFRCRNGRCIPRAWRCDGVNDCADNSDEEDCTEHT
B25: SEQ ID NO 798 (designed binder)
chain: B24 chain with S4D, Q5E, R7T, S9D, P15S, A16L, D17N, A27G, T33A
B26: SEQ ID NO 799 (designed binder)
chain: B24 chain with S4D, Q5E, R7T, S9D, P15S, A16L, D17N, A27G, T33A, S68G
B27: SEQ ID NO 811 (designed binder)
chain: B24 chain with P2R, S3A, S4D, Q5E, R7Q, S9G, S68G
B28: SEQ ID NO 797 (designed binder)
chain: B24 chain with A27G, T33A, S68G
B29: SEQ ID NO 796 (designed binder)
chain: B24 chain with P36A
B30: SEQ ID NO 728 (designed binder)
chain: CPAGQFTCGSGKCVSGGLLCDGDNDCQDGSDEAGCATRTCLPSQFQCGSGYCISQRWVCDGENDCEDSSDEANCAGSVPT
B31: SEQ ID NO 693 (designed binder)
chain: CVPSQFQCGSGYCISQRWVCDGENDCEDSSDEANCAGSVPTCPSNEFPCESGHCVPLTWRCDGEDDCPDSSDEANCGRPGPGATSVPAA
B32: SEQ ID NO 729 (designed binder)
chain: CAPDQFKCGNGNCLPLPWVCDGDNDCGDNSDEANCPQHTCLPSQFQCGSGYCISQRWVCDGENDCEDSSDEANCAGSVPT
B33: SEQ ID NO 640 (designed binder)
chain: CVPSQFQCGSGYCISQRWVCDGENDCEDSSDEANCAGSVPTCLPDQFQCGSGYCLPQAWVCDGENDCEDGSDETNCPART
B34: SEQ ID NO 639 (designed binder)
chain: CLPSQFQCGSGYCISQRWVCDGENDCEDSSDEANCAGSVPTCRASQFQCGSGYCIPRPWLCDGVNDCEDGSDEADCQTRT
B35: SEQ ID NO 810 (designed binder)
chain: CGSNEFTCSNGRCIPPTLLCDGVNDCGDDSDETGCATPVRTCLPSQFQCGSGYCISQRWVCDGENDCEDGSDEANCAGSVPTCPSDEFRCRNGRCIPRAWRCDGVNDCADNSDEEDCTEHT
B36: SEQ ID NO 721 (designed binder)
chain: CLPSQFQCGSGYCISQRWVCDGENDCEDGSDEESCTGPGHTCLPSQFQCGSGYCISQRWVCDGENDCEDSSDEANCAGSVPT
B37: SEQ ID NO 696 (designed binder)
chain: CLPSQFQCGSGYCISQRWVCDGENDCEDSSDEANCAGSVPTCPSGEFRCGNGSCLPAGWVCDGVDDCVDGSDEKGCQTPT
B38: SEQ ID NO 644 (designed binder)
chain: CAPNQFQCGSGYCVPAAWVCDGENDCEDNSDESSALCQERTCLPSQFQCGSGYCISQRWVCDGENDCEDSSDEANCAGSVPT
B39: SEQ ID NO 646 (designed binder)
chain: B38 chain with L43V

This test concerns the target T1, human IL-6. As to the kind of experiment: panning and screening on IL-6.
Turning to B1, the binding result is recorded as “binds”. The entry for B2 is “binds”; for B3 it is “binds”; for B4 it is “binds”. For B5, the binding result is listed as “binds”.

Consider B6, for which the binding result is “binds”.

As for B7, the binding result is on record as “binds”. The value for B8 was “binds”. The value for B9 was “binds”; that for B10 was “binds”; that for B11 was “binds”. The entry for B12 is “binds”. Regarding B13, the binding result is recorded as “binds”. The entry for B14 is “binds”. The entry for B15 is “binds”. Turning to B16, the binding result is “binds”.

Turning to B17, the binding result is reported as “binds”. The value for B18 was “binds”.

On to B19, for which the binding result is recorded as “binds”. On to B20, for which the binding result is on record as “binds”. The value for B21 was “binds”. The entry for B22 is “binds”; for B23 it is “binds”; for B24 it is “binds”. The entry for B25 is “binds”.

In the case of B26, the binding result was “binds”. The value for B27 was “binds”. The entry for B28 is “binds”. In the case of B29, the binding result is “binds”.

B30: the binding result is “binds”. The entry for B31 is “binds”; for B32 it is “binds”. As for B33, the binding result is on record as “binds”.

Consider B34, for which the binding result is “binds”. The value for B35 was “binds”. Turning to B36, the binding result is on record as “binds”. The entry for B37 is “binds”. B38: the binding result is “binds”.

With B39, the binding result is given as “binds”.
